For at least one compound, name, drawing or mass did not settle the structure.
How the values were obtained:
[1] = test system: NF-κB; test: NF-κB activity assay (SEAP reporter, Quantiblue) in THP-1 Dual cells; format: cell-based, human; details: Ly294002 pretreatment 60 minutes, LPS 100 ng/ml + RTD-1 10 μg/ml overnight, dose-dependent
Method: One ml aliquots of PMA-differentiated THP-1 Dual cells (3.3×10^5 cells/nil) in 24 well tissue culture plates were starved for 1 day in complete medium with 1% HI FBS as described above. For experiments with S7 peptide, 0.5 ml cultures in 48 well plates were used. Fresh medium containing 1% HI FBS was added to the cells and after 2 hours cells were stimulated with 100 ng/ml LPS or 25 ng/ml Pam3CSK4 in the presence of RTD-1 or 0.01% acetic acid (HOAc, vehicle). In some experiments cells were pre-incubated with marimastat, Ly294002 or vehicle for 1 hour prior to addition of LPS and/or RTD-1 (SEQ ID NO. 1). Following overnight incubation, medium was clarified by centrifugation and SEAP activity was determined using Quantiblue reagent at 37° C. and measurement of absorbance at 625 nm. To test the effect of RTD-1 on TLR9-dependent NF-κB activation, 2×10^5 HEK-Blue™ hTLR9 cells/ml were cultured for 1 day in 24 well plates and stimulated overnight with ODN2006 with or without RTD-1. Medium was harvested and SEAP activity was assayed using Quantiblue™ as above. NF-κB activation was defined as fold stimulation of SEAP activity with respect to control cells.

[2] = test system: THP-1 cells; test: Immunoblot analyses of THP-1 cell extracts; format: cell-based, human; details: 10 μM Ly294002 with RTD-1 10 μg/ml
Method: Differentiated THP-1 cells (˜8×10^5 cells/2.5 ml medium) were starved in complete medium containing […] for 1 day as above, and fresh 2.5 ml RPMI 1640+1% FBS+P/S was added for 2 hours. For experiments with fresh monocytes, cells (>80% CD14+) were resuspended (˜10^6 cells/nil) in monocyte attachment medium (Promocell, Heidelberg, Germany) in wells of a 12 well plate for 2 hours at 37° C. in 5% CO2. The cells were then washed two times with RPMI medium containing 1% HI FBS and suspended overnight in RPMI medium containing 1% HI FBS. Cells were stimulated with agonists with or without RTD-1 (SEQ ID NO. 1) as described in the figure legends after which cells were washed with PBS and extracts were prepared in cell lysis buffer+1 mM PMSF. Protein content was determined using the BCA method (BioRad, San Diego, Calif.) and extracts resolved on SDS-tricine gels and transferred to nitrocellulose membrane. The membranes were probed with the indicated antibodies and developed using anti-mouse or anti-rabbit HRP conjugated secondary antibodies and detected by chemiluminescence. […] Arrays were probed with 200 μg of cell extract protein and chemiluminescence of spots from arrays or bands from western blotting was quantified using NIH ImageJ software, background subtracted, normalized and plotted.

O=c1cc(N2CCOCC2)oc2c(-c3ccccc3)cccc12 [Ly294002, reference compound]
effect on the suppression of NF-κB activation by RTD-1 [1]: reversed
RTD-1 induced P-Akt levels [2]: markedly reduced

— patent US20170035845A1, “Compositions and Methods for Inhibiting Pro-Inflammatory Cytokine Gene Expression” (The Regents of the University of California, priority 2015, published 2017)
